This note sets out measurements from paper doi:10.1101/2024.09.04.610270.

The chains behind the UniProt entries cited, without tags or fusion partners.
UniProt Q9LY75: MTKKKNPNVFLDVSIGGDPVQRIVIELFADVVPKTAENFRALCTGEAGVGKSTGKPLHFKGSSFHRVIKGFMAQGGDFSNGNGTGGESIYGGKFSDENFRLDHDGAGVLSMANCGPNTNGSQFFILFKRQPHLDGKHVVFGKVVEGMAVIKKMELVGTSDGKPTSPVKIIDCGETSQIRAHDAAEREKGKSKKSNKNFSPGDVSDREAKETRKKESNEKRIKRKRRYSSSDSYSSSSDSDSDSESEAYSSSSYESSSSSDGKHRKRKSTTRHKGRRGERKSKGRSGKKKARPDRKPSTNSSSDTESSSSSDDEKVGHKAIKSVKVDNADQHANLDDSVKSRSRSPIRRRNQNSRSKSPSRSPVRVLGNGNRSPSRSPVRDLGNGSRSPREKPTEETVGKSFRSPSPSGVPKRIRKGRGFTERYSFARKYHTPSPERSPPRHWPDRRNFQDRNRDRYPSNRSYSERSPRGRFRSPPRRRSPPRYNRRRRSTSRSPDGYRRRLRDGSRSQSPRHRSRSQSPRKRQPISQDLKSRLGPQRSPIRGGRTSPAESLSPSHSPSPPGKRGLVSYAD

Residue numbers refer to the chain shown, from its start. Like-named read-outs stand apart in the source and are kept apart here. Results are given in words; binding and its absence hold for the method and conditions named. For part of these data: Binding seen in cells or lysates may run through a third protein. Some binding calls cover weakened binding; strength is not graded here. For part of these data: Sequences can lack the tags named with a protein.

Assay [1] deals with T1, arginine/serine-rich zinc knuckle-containing protein 32 (RS2Z32), native full-length, yeast two-hybrid bait (Arabidopsis thaliana) (UniProt Q9FYB7).
T1 sequence: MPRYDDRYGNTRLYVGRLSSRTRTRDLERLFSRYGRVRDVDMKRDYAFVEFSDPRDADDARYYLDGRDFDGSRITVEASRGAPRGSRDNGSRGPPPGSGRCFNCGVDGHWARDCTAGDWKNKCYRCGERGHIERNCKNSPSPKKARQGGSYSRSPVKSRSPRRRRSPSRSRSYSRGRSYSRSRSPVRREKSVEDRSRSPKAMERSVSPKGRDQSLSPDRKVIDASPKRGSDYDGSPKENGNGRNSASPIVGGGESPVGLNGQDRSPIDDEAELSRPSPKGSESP
The experiment in a line: two-hybrid.

Assay [2] has as its target T2, RS2Z33mutRRM (Arabidopsis thaliana) (UniProt Q8VYA5).
T2 sequence: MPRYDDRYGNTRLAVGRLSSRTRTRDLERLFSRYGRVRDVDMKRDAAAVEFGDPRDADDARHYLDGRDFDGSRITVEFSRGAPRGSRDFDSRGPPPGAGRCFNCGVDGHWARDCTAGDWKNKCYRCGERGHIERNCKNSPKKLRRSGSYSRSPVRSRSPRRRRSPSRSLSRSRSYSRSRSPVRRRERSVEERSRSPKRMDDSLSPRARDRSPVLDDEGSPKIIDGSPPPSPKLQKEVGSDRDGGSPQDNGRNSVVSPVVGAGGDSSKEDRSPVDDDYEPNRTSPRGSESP
The experiment in a line: two-hybrid.

The target of assay [3] is T3, arginine/serine-rich zinc knuckle-containing protein 33 (RS2Z33), native full-length, yeast two-hybrid bait (Arabidopsis thaliana) (UniProt Q8VYA5).
T3 sequence: T2 sequence with A14Y, A46Y, A48F
The experiment in a line: two-hybrid.

For assay [4], the target named is T4, RS2Z32mutRRM (Arabidopsis thaliana) (UniProt Q9FYB7).
T4 sequence: T1 sequence with Y14A, Y46A, F48A
Kind of assay: two-hybrid.

Assay [5] addresses T1, arginine/serine-rich zinc knuckle-containing protein 32 (RS2Z32), native full-length, yeast two-hybrid bait (Arabidopsis thaliana). The experiment in a line: two-hybrid. The source holds these as a separate data set.
In assay [6] the target is T5, RS2Z33:^CYFP (Arabidopsis thaliana) (UniProt Q8VYA5).
T5 sequence: T2 sequence with A14Y, A46Y, A48F
Kind of assay: split reporter.

In assay [7] the target is T6, RS2Z32:^CYFP (Arabidopsis thaliana) (UniProt Q9FYB7).
T6 sequence: T1 sequence
The experiment in a line: split reporter.

Assay [8] concerns the target T3, arginine/serine-rich zinc knuckle-containing protein 33 (RS2Z33), native full-length, yeast two-hybrid bait (Arabidopsis thaliana). Kind of assay: two-hybrid. The source holds these as a separate data set.
In assay [9] the target is T7, RS2Z32ΔZnKs+RS+SP (the sole RRM of RS2Z32) (Arabidopsis thaliana) (UniProt Q9FYB7).
T7 sequence: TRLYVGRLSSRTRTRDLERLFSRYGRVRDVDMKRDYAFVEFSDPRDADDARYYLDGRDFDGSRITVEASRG
The experiment in a line: two-hybrid.

Assay [10] deals with T8, RS2Z33ΔZnKs+RS+SP (the sole RRM of RS2Z33) (Arabidopsis thaliana) (UniProt Q8VYA5).
T8 sequence: T7 sequence with S42G, Y52H, A68F
Kind of assay: two-hybrid.

Consider CypRS64 (from UniProt Q9LY75 1-570), for which the binding entry in [1] is reported as “binds”; in assay [2], “no binding”; in [3] it was “binds”; in assay [4] it was “no binding”; in assay [5], “binds”.
Take “CypRS64:^NYFP (from UniProt Q9LY75 1-570)”: the binding entry in assay [6] and in assay [7] was “binds” in each case.

B1: CypRS92 (protein, UniProt Q8RWY7 1-837)
chain: MAKKKNPQVFMDVSIDGDPAETMVFELFPEVAPKTSENFRALCTGEKGIGPRSGKPLHYKGSFFHRIMKGSSAQAGDFVNRNGTAGESIYAGKFPDESPKLRHEETGLLSMSIADRDKFGSHFHITFRPNQQLDRNNVVFGKLIQGKEILKKIERVGDEEGKPTVSVKIIRCGEYSGDKKKSDGKKNGKHKKSLRVRRKKRRRHSSSESESSSDSETDSSESDSESDSDLSSPSFLSSSSHERQKKRKRSSKKDKHRRSKQRDKRHEKKRSMRDKRPKRKSRRSPDSLEDSNSGSEASLSDVNVEIGAKKRKHRVSRRTGNSAPAVEKEAESLHQGKRKGPDLLENRGLRSNGISDAASEQISDRQPDIVDDHPSKSRSRSLSPKRTVSKSTSVSPRRSQSKSPSSSPRWNGGRSPAKGSRQVKNLTNSRRESPGSEEKGRHVRRSPTKSVSRSPVRVKKERDISRSPSKSLSRSPLRSPKRVISRSPVRGRIARSPSRSPVRSASRGSLGRGPLRRSSRRSPSRSPVRSSRRSLSRSPIQLSRRSLSRSPTRLSRRSLSRSPIRSPRKSVSRSPVRSSRKSVSRSPVRSSRRRISRSPVRSSRKSVSRSPIRLSRRSISRSPIRLSRRSISRSPVRGRRRISRSPVPARRRSVRPRSPPPDRRRSLSRSASPNGRIRRGRGFSQRFSYARRYRTSPSPDRSPYRFSDRSDRDRFRSRRRFSPSRFRSPLRGRTPPRYRRRSRSVSPGLCYRNRRYSRSPIRSRSPPYRKRRSPSASHSLSPSRSRSRSKSYSKSPIGTGKARSVSRSPSKARSPSKSDSTSSDNSPGGKKGLVAYD
As for B1, the binding result is listed as “binds” in [1], “no binding” in assay [2], “binds” in [3] and “no binding” in [4].

B2: SR34:^NYFP (protein, UniProt O22315 1-303)
chain: MSSRSSRTVYVGNLPGDIREREVEDLFSKYGPVVQIDLKVPPRPPGYAFVEFDDARDAEDAIHGRDGYDFDGHRLRVELAHGGRRSSDDTRGSFNGGGRGGGRGRGDGGSRGPSRRSEFRVLVTGLPSSASWQDLKDHMRKGGDVCFSQVYRDARGTTGVVDYTCYEDMKYALKKLDDTEFRNAFSNGYVRVREYDSRKDSRSPSRGRSYSKSRSRSRGRSVSRSRSRSRSRSRSPKAKSSRRSPAKSTSRSPGPRSKSRSPSPRRSRSRSRSPLPSVQKEGSKSPSKPSPAKSPIHTRSPSR
For the molecule B2, the binding entry in assay [6] and in [7] was “binds” each time.

B3: SCL30 (protein, UniProt Q8L3X8 1-262)
chain: MRRYSPPYYSPPRRGYGGRGRSPPPPPPRRGYGGGGGGGGRRGSSHGSLLVRNIPLDCRPEELREPFERFGPVRDVYIPRDYYSGQPRGFAFVEFVDAYDAGEAQRSMNRRSFAGREITVVVASESRKRPEEMRVKTRTRSREPSGSRDRSHGRSRSRSISRSRSPRRPSDSRSRYRSRSYSPAPRRRGGPPRGEEDENYSRRSYSPGYEGAAAAAPDRDRNGDNEIREKPGYEAEDRRRGGRAVSRSPSGSRSRSVEVSPR
Take B3: the binding entry in assay [1], in [2], in assay [3], in [4], in [5] and in [8] was “binds” in each case.

B4: SCL30:^NYFP (protein, UniProt Q8L3X8 1-262)
chain: B3 chain
Consider B4, for which the binding result in assay [6] and in assay [7] was “binds” in each case.

B5: SR45.1:^NYFP (protein, UniProt Q9SEE9-1 1-414)
chain: MAKPSRGRRSPSVSGSSSRSSSRSRSGSSPSRSISRSRSRSRSLSSSSSPSRSVSSGSRSPPRRGKSPAGPARRGRSPPPPPSKGASSPSKKAVQESLVLHVDSLSRNVNEAHLKEIFGNFGEVIHVEIAMDRAVNLPRGHGYVEFKARADAEKAQLYMDGAQIDGKVVKATFTLPPRQKVSSPPKPVSAAPKRDAPKSDNAAADAEKDGGPRRPRETSPQRKTGLSPRRRSPLPRRGLSPRRRSPDSPHRRRPGSPIRRRGDTPPRRRPASPSRGRSPSSPPPRRYRSPPRGSPRRIRGSPVRRRSPLPLRRRSPPPRRLRSPPRRSPIRRRSRSPIRRPGRSRSSSISPRKGRGPAGRRGRSSSYSSSPSPRRIPRKISRSRSPKRPLRGKRSSSNSSSSSSPPPPPPPRKT
For B5, the binding entry in [6] and in assay [7] was “binds” throughout.

B6: SR45.2 (protein, UniProt Q9SEE9-2 1-407)
chain: MAKPSRGRRSPSVSGSSSRSSSRSRSGSSPSRSISRSRSRSRSLSSSSSPSRSVSSGSRSPPRRGKSPAGPARRGRSPPPPPSKGASSPSKKAVQESLVLHVDSLSRNVNEAHLKEIFGNFGEVIHVEIAMDRAVNLPRGHGYVEFKARADAEKAQLYMDGAQIDGKVVKATFTLPPRQKVSSPPKPVSAAPKRDAPKSDNAAADAEKDGGPRRPRERLSPRRRSPLPRRGLSPRRRSPDSPHRRRPGSPIRRRGDTPPRRRPASPSRGRSPSSPPPRRYRSPPRGSPRRIRGSPVRRRSPLPLRRRSPPPRRLRSPPRRSPIRRRSRSPIRRPGRSRSSSISPRKGRGPAGRRGRSSSYSSSPSPRRIPRKISRSRSPKRPLRGKRSSSNSSSSSSPPPPPPPRKT
Consider B6, for which the binding entry in [1], in assay [9], in assay [2], in assay [10], in [3] and in assay [4] was “binds” throughout. Further, in [8], the binding entry is given as “binds”.
